Measurements as given in the supplement of paper PMC10849652.
The list shows a part of the results.

By UniProt entry, the sequences of proteins in these tests, tags left out. Where a name states a change or a piece, a line headed by the entry shows the natural chain unless it says otherwise.
UniProt Q9H981, whole entry, looked up: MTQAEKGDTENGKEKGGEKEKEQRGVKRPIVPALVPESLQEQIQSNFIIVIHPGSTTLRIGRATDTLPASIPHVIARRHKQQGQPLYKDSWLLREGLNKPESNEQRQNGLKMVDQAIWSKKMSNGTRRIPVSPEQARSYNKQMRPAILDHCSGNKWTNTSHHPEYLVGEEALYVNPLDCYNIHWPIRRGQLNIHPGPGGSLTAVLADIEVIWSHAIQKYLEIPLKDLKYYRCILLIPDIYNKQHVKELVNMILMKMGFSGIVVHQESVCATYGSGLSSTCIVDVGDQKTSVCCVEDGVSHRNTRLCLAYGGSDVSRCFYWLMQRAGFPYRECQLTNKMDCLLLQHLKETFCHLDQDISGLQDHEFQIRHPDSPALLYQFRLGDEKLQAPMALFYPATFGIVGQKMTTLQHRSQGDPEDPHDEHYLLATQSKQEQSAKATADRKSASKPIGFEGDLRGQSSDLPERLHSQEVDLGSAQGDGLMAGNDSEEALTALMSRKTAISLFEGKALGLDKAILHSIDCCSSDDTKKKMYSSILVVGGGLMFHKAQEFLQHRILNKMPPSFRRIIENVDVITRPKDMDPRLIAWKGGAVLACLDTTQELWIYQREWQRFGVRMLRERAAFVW
UniProt Q9ULC5: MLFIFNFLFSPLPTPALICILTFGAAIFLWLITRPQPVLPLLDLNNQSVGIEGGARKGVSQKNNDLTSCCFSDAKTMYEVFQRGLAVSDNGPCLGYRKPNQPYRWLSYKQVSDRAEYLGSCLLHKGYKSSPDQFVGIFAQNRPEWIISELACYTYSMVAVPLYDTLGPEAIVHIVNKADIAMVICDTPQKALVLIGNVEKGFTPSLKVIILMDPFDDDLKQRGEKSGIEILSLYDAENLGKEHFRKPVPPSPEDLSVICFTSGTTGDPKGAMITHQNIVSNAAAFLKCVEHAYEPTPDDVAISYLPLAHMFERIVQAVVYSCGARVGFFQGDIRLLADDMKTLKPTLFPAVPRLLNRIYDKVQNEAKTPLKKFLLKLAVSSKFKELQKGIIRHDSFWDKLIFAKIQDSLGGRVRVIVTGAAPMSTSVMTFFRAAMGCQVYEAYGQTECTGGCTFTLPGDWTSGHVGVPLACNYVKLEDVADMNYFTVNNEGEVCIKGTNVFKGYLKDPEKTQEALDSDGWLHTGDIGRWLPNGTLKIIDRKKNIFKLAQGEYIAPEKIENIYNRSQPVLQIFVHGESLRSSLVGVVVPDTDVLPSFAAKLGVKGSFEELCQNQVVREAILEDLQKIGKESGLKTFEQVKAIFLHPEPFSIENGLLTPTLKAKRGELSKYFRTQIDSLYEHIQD
UniProt P20933: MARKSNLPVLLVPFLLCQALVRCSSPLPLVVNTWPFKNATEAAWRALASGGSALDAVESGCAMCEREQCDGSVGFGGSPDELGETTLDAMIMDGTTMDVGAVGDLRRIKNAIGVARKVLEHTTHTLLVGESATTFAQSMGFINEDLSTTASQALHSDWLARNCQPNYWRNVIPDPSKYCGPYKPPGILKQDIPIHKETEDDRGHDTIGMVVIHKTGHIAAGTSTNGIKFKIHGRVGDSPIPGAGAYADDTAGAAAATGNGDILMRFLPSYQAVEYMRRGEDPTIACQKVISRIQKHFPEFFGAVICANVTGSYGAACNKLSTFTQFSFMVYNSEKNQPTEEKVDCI
UniProt P55008: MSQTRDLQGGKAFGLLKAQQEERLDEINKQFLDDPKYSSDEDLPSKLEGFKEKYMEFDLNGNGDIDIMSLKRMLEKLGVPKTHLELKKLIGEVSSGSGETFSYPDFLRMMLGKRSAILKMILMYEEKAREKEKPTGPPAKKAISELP
UniProt P35612: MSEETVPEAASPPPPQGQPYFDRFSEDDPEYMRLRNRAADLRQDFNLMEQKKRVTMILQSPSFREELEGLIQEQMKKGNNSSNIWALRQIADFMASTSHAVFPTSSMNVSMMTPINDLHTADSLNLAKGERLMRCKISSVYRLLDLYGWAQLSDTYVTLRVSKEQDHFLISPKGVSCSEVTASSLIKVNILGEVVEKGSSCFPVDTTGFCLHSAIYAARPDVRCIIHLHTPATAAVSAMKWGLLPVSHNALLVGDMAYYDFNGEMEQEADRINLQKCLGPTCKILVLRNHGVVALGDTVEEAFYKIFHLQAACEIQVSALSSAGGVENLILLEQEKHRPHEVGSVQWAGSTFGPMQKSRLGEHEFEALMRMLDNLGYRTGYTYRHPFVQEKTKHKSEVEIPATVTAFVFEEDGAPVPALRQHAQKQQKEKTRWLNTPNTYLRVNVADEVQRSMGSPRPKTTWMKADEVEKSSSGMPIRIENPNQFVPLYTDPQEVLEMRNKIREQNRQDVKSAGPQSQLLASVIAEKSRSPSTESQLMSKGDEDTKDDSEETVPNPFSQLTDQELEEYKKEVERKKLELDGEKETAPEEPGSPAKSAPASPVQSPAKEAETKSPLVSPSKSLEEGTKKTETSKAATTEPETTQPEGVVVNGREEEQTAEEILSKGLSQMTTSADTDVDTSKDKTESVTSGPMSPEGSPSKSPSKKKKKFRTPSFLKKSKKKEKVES
UniProt Q9BQI0: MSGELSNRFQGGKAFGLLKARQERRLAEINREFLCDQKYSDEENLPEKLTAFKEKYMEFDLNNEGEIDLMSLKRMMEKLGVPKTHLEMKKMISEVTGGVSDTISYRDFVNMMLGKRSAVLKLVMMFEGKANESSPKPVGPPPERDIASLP
UniProt Q96A54: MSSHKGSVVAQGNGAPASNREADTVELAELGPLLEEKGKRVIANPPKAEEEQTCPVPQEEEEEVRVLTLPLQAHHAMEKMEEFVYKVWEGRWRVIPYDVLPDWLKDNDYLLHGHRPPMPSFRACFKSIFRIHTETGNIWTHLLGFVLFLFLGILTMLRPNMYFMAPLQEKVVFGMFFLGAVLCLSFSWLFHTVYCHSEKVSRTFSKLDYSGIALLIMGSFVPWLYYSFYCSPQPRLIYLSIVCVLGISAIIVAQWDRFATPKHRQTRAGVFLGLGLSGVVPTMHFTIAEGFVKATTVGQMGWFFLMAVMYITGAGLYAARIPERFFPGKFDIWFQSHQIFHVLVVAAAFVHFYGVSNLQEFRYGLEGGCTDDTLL
UniProt Q13705: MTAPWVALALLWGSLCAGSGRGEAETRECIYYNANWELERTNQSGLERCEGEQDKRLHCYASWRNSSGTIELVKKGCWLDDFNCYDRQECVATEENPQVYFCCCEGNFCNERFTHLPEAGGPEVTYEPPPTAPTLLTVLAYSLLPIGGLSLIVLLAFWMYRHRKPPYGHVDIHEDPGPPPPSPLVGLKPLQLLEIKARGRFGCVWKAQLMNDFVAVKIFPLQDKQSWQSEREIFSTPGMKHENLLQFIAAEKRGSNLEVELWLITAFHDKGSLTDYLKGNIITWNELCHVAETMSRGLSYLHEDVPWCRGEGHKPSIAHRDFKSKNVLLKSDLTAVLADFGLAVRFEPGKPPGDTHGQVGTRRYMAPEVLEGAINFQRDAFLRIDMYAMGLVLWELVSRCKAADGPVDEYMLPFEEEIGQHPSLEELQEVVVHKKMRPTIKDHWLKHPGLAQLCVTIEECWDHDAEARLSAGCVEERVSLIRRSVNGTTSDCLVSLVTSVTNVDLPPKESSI
UniProt Q9NRZ5: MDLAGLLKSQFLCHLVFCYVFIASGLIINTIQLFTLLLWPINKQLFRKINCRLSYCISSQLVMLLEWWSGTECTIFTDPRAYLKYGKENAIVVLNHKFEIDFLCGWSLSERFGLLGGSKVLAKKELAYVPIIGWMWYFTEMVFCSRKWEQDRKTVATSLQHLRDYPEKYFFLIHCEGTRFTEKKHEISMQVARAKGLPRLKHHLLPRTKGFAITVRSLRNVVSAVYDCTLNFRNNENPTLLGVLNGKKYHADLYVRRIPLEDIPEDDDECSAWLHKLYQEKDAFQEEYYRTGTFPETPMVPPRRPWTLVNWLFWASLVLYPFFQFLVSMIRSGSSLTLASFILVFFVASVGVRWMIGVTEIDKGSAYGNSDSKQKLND
UniProt Q13444: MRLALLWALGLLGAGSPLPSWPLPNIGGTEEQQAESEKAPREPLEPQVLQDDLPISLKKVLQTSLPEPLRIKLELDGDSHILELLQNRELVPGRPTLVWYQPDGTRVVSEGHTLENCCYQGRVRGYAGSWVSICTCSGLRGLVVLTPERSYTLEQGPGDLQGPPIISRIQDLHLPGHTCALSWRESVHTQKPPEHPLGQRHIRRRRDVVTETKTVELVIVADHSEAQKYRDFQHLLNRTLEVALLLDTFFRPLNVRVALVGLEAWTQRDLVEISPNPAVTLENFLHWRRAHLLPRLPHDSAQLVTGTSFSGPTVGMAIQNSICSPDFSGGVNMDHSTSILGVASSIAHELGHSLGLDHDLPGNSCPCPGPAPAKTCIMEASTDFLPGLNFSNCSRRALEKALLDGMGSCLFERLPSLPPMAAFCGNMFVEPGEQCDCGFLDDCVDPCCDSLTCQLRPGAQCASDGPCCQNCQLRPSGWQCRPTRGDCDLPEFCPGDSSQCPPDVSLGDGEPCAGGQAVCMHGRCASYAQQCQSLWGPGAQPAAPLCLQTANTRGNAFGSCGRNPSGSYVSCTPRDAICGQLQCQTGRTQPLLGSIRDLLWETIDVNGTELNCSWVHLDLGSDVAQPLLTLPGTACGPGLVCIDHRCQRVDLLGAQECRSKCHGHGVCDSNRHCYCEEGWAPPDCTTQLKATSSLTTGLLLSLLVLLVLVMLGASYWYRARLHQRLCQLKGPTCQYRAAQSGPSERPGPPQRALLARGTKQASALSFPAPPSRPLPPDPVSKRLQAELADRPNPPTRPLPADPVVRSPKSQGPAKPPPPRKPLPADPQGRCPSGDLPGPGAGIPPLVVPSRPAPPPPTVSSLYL
UniProt Q6ZN18: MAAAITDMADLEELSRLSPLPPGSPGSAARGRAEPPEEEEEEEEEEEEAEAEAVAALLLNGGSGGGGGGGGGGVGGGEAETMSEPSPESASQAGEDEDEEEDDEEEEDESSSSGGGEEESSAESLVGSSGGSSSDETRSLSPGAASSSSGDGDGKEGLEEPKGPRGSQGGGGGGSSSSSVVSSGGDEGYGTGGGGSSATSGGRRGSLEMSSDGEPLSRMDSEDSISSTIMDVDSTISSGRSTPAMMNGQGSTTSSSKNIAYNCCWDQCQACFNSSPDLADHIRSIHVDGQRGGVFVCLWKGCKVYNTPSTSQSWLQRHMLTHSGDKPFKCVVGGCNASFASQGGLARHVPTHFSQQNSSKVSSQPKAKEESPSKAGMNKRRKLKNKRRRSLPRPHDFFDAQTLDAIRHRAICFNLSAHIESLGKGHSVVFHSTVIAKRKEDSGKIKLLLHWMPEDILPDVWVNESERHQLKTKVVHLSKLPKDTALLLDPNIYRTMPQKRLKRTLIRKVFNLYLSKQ
UniProt P78536: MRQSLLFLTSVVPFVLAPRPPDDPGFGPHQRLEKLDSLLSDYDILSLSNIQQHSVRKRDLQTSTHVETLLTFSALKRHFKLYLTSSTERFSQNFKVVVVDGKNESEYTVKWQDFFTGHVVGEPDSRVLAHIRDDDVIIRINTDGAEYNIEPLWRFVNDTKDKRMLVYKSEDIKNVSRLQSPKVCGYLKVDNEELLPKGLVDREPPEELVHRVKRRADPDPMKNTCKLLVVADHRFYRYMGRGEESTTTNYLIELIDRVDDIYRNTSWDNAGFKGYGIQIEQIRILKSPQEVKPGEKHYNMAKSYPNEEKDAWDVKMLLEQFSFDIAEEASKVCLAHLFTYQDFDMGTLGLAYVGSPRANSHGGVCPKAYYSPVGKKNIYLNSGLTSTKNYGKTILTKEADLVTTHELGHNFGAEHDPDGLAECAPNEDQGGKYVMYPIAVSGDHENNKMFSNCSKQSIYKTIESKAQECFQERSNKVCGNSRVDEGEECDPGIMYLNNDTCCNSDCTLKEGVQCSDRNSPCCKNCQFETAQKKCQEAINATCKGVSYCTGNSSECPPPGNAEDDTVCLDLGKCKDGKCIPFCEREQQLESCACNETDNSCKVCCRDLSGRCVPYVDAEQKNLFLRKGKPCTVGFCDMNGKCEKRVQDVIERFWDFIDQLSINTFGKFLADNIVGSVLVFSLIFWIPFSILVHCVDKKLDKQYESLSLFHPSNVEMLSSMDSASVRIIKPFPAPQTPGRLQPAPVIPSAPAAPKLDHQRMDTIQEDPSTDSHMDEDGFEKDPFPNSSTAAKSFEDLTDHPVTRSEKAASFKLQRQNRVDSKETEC

Experiments:
Assay in all cases: log2 fold change, soluble protein after heating vs DMSO (PISA); higher = thermal stabilisation; K562 lysate, 10 uM; active = over 0.2 and 3.5 SD of the protein, either way, in both replicates (recomputed)
erlotinib = compound: C#Cc1cccc(Nc2ncnc3cc(OCCOC)c(OCCOC)cc23)c1 [erlotinib]
Outline: (§1)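 To prepare the extract, K562 pellets were dounce-homogenised in PBS pH 7.4 with 1 mM MgCl2, giving crude material at 1 mg/mL protein. This was treated with 10 μM compound for 30 min, then heated in aliquots for 3 min over 48°C-58°C before pooling and addition of NP-40 to 0.5% at 4°C. Centrifugation at 21,000xg for 90 min left soluble protein in the supernatant, which TMTpro 16plex LC-MS/MS quantified with equalised channel sums. Results are log-two fold changes in thermal stability compared with solvent controls, from duplicates.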

[1] = compound: C1=CC(=CC=C1C2=NC3=C(N2)C=C(C=C3)C(=O)N)OC4=CC=C(C=C4)Cl
Outline: as §1

[2] = compound: C1=CC=C(C=C1)C2=NC(=C(N2)C3=CC=NC=C3)C4=CC(=C(C=C4)Cl)O
Outline: as §1

[3] = compound: C1CCN(C1)C(=O)NC2=CC=CC(=C2)NC3=NC=C(C(=N3)NCCC4=CN=CN4)Br
Outline: as §1

[4] = compound: C1CN(CCC1(CC2=CC=C(C=C2)Cl)N)C3=NC=NC4=C3C=CN4
Outline: as §1

IRAK-1-4 Inhibitor I = compound: C1COCCN1CCN2C3=CC=CC=C3N=C2NC(=O)C4=CC(=CC=C4)[N+](=O)[O-] [IRAK-1-4 Inhibitor I]
Outline: as §1

[5] = compound: CC(=O)c1cnc2ccc(-c3cc(Cl)c(O)c(Cl)c3)nc2c1N[C@H]1CC[C@H](CN(C)C)CC1
Outline: as §1

ralimetinib = compound: CC(C)(C)Cn1c(N)nc2ccc(-c3[nH]c(C(C)(C)C)nc3-c3ccc(F)cc3)nc21 [ralimetinib]
Outline: as §1

[6] = compound: CC(C)(O)CC(=O)NCCn1ccc2ncnc(Nc3ccc(Oc4cccc(C(F)(F)F)c4)c(Cl)c3)c21
Outline: as §1

[7] = compound: CC(C)C1=C2N=C(C=C(N2N=C1)NCC3=CC=CC=C3)NCCCCCCN
Outline: as §1

[8] = compound: CC1=C(C(CC(=O)N1)C2=CC=C(C=C2)C(F)(F)F)C(=O)NC3=C(C=C4C(=C3)C=NN4)F
Outline: as §1

[9] = compound: CC1=C(C2=C(C=C1)C(=O)C3=CC=CC=C3N2CCCN)C
Outline: as §1

[10] = compound: CC1=C(C=C(C=C1)NC(=O)C2=CC(=CC=C2)N(C)C)NC(=O)C3=CC=C(C=C3)O
Outline: as §1

[11] = compound: CC1=CC=C(C=C1)SC2=C3C=C(SC3=CN=C2)C(=O)N
Outline: as §1

[12] = compound: C1=CC2=NC=CN=C2C=C1/C=C/3\C(=O)NC(=O)S3
Outline: as §1

ibrutinib = compound: C=CC(=O)N1CCC[C@@H](n2nc(-c3ccc(Oc4ccccc4)cc3)c3c(N)ncnc32)C1 [ibrutinib]
Outline: as §1

[13] = compound: CC1=C(C=C(C=C1)NC(=O)C2=CC(=CC=C2)C(C)(C)C#N)NC3=CC4=C(C=C3)N=CN(C4=O)C
Outline: as §1

[14] = compound: C/C(=N\NC(=O)C1=CC(=CC=C1)S(=O)(=O)N2CCOCC2)/C3=C(C=CC(=C3)Cl)O
Outline: as §1

[15] = compound: C1=CC2=C(C=CC(=C2)/C=C\3/C(=O)NC(=NCC4=CC=CS4)S3)N=C1
Outline: as §1

[16] = compound: C1=CC=C2C(=C1)C3=NNC4=CC=CC(=C43)C2=O
Outline: as §1

Measured: log2 fold change

ACTR8 (UniProt Q9H981)
inactive: erlotinib -0.296 | [1] 0.173 | [2] 0.131 | [3] 0.101 | [4] 0.099 | IRAK-1-4 Inhibitor I -0.087 | [5] -0.213 | ralimetinib 0.192 | [6] -0.185 | [7] -0.058 | [8] -0.088 | [9] -0.128 | [10] 0.157 | [11] 0.121

ACSL5 isoform 3 (UniProt Q9ULC5)
inactive: erlotinib 0.043 | [1] -0.172 | [12] -0.085 | [2] 0.03 | IRAK-1-4 Inhibitor I 0.056 | ibrutinib -0.013 | [5] -0.014 | ralimetinib 0 | [6] -0.078 | [7] 0.032 | [8] 0.039 | [9] 0.043 | [13] -0.05 | [10] 0.036 | [11] 0.005

AGA (UniProt P20933)
inactive: erlotinib 0.067 | [14] -0.006 | [1] 0.011 | [15] -0.003 | [2] 0.164 | [16] 0.069 | [3] -0.047 | [4] 0.096 | IRAK-1-4 Inhibitor I 0.004 | [5] -0.165 | ralimetinib -0.06 | [6] -0.053 | [7] -0.024 | [13] -0.026 | [10] -0.05 | [11] -0.127

AIF1 (UniProt P55008)
inactive: erlotinib -0.06 | [14] 0.106 | [1] -0.378 | [15] 0.055 | [2] -0.243 | [16] 0.08 | IRAK-1-4 Inhibitor I -0.058 | [5] 0.062 | ralimetinib -0.097 | [6] -0.05 | [7] -0.186 | [8] 0.029 | [9] 0.119 | [13] 0.056 | [10] -0.033 | [11] 0.004

ADD2 isoform 9 (UniProt P35612)
inactive: erlotinib -0.111 | [14] -0.031 | [1] -0.033 | [15] -0.17 | [2] 0.075 | [16] 0.041 | [3] -0.064 | [4] 0.006 | IRAK-1-4 Inhibitor I 0.076 | [5] 0.038 | ralimetinib 0.025 | [6] -0.244 | [7] -0.013 | [8] 0.098 | [9] -0.001 | [10] -0.054 | [11] 0.253

AKAP17A (UniProt Q02040)
inactive: erlotinib 0.034 | [1] 0.016 | [2] -0.061 | IRAK-1-4 Inhibitor I -0.056 | [5] -0.108 | ralimetinib 0.025 | [6] -0.084 | [7] 0.098 | [9] 0.196 | [13] -0.114 | [10] -0.02 | [11] 0.25

AIF1L (UniProt Q9BQI0)
inactive: erlotinib -0.035 | [1] -0.008 | [12] -0.014 | [2] 0.012 | [3] 0.329 | [4] -0.008 | IRAK-1-4 Inhibitor I -0.049 | ibrutinib 0.169 | [5] 0.032 | ralimetinib 0.029 | [6] -0.003 | [7] -0.105 | [8] -0.012 | [9] 0.159 | [13] -0.014 | [10] -0.005 | [11] -0.013

ADIPOR1 (UniProt Q96A54)
inactive: erlotinib 0.04 | [14] -0.025 | [1] 0.062 | [15] 0.04 | [12] -0.129 | [2] -0.051 | [16] 0.013 | [3] -0.029 | [4] 0.11 | IRAK-1-4 Inhibitor I 0 | ibrutinib 0.001 | ralimetinib -0.006 | [6] -0.034 | [7] -0.196 | [8] 0.03 | [9] -0.037 | [13] 0.05 | [10] 0.036

ACVR2B (UniProt Q13705)
inactive: erlotinib -0.011 | [14] 0.127 | [1] 0.171 | [15] -0.228 | [16] -0.161 | [7] 0.099

AGPAT4 (UniProt Q9NRZ5)
inactive: erlotinib 0.08 | [1] -0.024 | [12] 0.176 | [2] -0.073 | [3] 0.072 | [4] -0.042 | IRAK-1-4 Inhibitor I -0.024 | ibrutinib -0.001 | ralimetinib -0.026 | [6] 0.06 | [7] 0.053 | [13] -0.025 | [10] 0.032

ADAM15 (UniProt Q13444)
inactive: erlotinib 0.048 | [1] -0.062 | [12] 0.012 | [2] -0.011 | IRAK-1-4 Inhibitor I -0.006 | ibrutinib 0.013 | [5] -0.158 | ralimetinib 0.006 | [6] -0.142 | [7] -0.168 | [9] 0.079 | [13] -0.11 | [10] -0.043 | [11] -0.161

AEBP2 (UniProt Q6ZN18)
inactive: erlotinib -0.142 | [1] 0.045 | [12] 0.06 | [2] -0.052 | IRAK-1-4 Inhibitor I -0.041 | ibrutinib 0.201 | [5] -0.061 | ralimetinib 0.051 | [6] 0.043 | [7] -0.014 | [9] -0.105 | [13] 0.107 | [10] -0.052 | [11] -0.092

Taken from above (two entries):
ADIPOR1 (UniProt Q96A54)
inactive: erlotinib 0.04 | [14] -0.025 | [1] 0.062 | [15] 0.04 | [12] -0.129 | [2] -0.051 | [16] 0.013 | [3] -0.029 | [4] 0.11 | IRAK-1-4 Inhibitor I 0 | ibrutinib 0.001 | ralimetinib -0.006 | [6] -0.034 | [7] -0.196 | [8] 0.03 | [9] -0.037 | [13] 0.05 | [10] 0.036

ACVR2B (UniProt Q13705)
inactive: erlotinib -0.011 | [14] 0.127 | [1] 0.171 | [15] -0.228 | [16] -0.161 | [7] 0.099

Going on with the list:

ADAM17 (UniProt P78536)
inactive: erlotinib 0.021 | [14] -0.013 | [1] 0.017 | [15] 0.023 | [12] -0.023 | [2] 0.044 | [16] -0.115 | [3] 0.052 | [4] -0.093 | IRAK-1-4 Inhibitor I 0.04 | ibrutinib 0.037 | ralimetinib -0.012 | [6] -0.032 | [7] -0.056 | [8] 0.16 | [9] -0.029 | [13] -0.013 | [10] -0.027
